Reference: paper PMC9632593
Results are given in words; binding and its absence hold for the method and conditions named. In cells and extracts the contact can be indirect. Some results given as binding are weak or reduced against the parent protein; the word gives no strength. Where a sequence is shown, tags or fusion partners need not be part of it.

Target: T1, Tripartite motif-containing protein 46, Myc-tagged (TRIM46-Myc) (UniProt Q7Z4K8)
T1 sequence: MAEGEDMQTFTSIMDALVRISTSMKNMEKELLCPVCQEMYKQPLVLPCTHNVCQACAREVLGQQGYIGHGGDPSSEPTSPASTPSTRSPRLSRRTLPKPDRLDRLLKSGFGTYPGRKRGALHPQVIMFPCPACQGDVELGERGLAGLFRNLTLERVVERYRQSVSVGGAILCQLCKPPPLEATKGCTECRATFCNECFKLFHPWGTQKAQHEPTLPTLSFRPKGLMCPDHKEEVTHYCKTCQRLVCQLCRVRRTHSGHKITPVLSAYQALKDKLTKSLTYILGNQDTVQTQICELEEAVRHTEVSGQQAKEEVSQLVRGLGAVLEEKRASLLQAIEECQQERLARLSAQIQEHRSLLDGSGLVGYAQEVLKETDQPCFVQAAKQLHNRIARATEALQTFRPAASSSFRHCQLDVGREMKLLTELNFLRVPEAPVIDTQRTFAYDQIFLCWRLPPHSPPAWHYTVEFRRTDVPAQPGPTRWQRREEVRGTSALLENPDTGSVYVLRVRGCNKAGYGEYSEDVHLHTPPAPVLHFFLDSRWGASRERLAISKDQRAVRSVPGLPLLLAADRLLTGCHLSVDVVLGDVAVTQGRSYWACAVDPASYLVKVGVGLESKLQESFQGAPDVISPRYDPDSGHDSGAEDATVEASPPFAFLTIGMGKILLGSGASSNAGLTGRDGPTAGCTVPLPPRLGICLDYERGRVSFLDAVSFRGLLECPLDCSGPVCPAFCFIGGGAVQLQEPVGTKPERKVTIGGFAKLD
Assay: co-IP

binding: binds
B1: TANK-binding kinase 1, FLAG-tagged (TBK1-Flag) (protein, UniProt Q9UHD2 1-729)
chain: MQSTSNHLWLLSDILGQGATANVFRGRHKKTGDLFAIKVFNNISFLRPVDVQMREFEVLKKLNHKNIVKLFAIEEETTTRHKVLIMEFCPCGSLYTVLEEPSNAYGLPESEFLIVLRDVVGGMNHLRENGIVHRDIKPGNIMRVIGEDGQSVYKLTDFGAARELEDDEQFVSLYGTEEYLHPDMYERAVLRKDHQKKYGATVDLWSIGVTFYHAATGSLPFRPFEGPRRNKEVMYKIITGKPSGAISGVQKAENGPIDWSGDMPVSCSLSRGLQVLLTPVLANILEADQEKCWGFDQFFAETSDILHRMVIHVFSLQQMTAHKIYIHSYNTATIFHELVYKQTKIISSNQELIYEGRRLVLEPGRLAQHFPKTTEENPIFVVSREPLNTIGLIYEKISLPKVHPRYDLDGDASMAKAITGVVCYACRIASTLLLYQELMRKGIRWLIELIKDDYNETVHKKTEVVITLDFCIRNIEKTVKVYEKLMKINLEAAELGEISDIHTKLLRLSSSQGTIETSLQDIDSRLSPGGSLADAWAHQEGTHPKDRNVEKLQVLLNCMTEIYYQFKKDKAERRLAYNEEQIHKFDKQKLYYHATKAMTHFTDECVKKYEAFLNKSEEWIRKMLHLRKQLLSLTNQCFDIEEEVSKYQEYTNELQETLPQKMFTASSGIKHTMTPIYPSSNTLVEMTLGMKKLKEEMEGVVKELAENNHILERFGSLTMDGGLRNVDCL
